The whole screen tested about 320,000 compounds, of which about 2,100 (0.66%) were called active. Inconclusive means that the source gave no clear call. Such entries were picked first, then a sample of the others. The call rests on the fitted dose curve; in most records, active means well fitted inhibition curve with a large enough effect in the signal ratio, with a control signal flat (not every such curve was filed as active); inconclusive means small, poorly fitted or top-dose-only effect, or effect the other way, or a change in a side signal; inactive means flat fitted curve, though single readings scatter; the % refers to the signal ratio. Potencies of inconclusive entries are doubtful fits and often do not repeat. Where a SMILES comes first, the peptide text is derived from it. [ ]: non-standard residue; d: D form. The star is where a group is joined. Hyp = O=C(O)[CH]1C[CH](O)CN1; Cbz = O=C(OCc1ccccc1)*; OBn = c1ccc(CO*)cc1
Assay: qHTS Assay for Lipid Storage Modulators in Drosophila S3 Cells
Conditions: BODIPY lipid droplet fluorescence, 18-24 h, cells fed with added oleic acid; lipid storage change, negative = inhibition: at 46.1 µM (top of the series) unless noted
How it was run: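 Drosophila S3 cells loaded with oleic acid (400 uM, as added) and compounds at several concentrations; lipid droplets imaged by 488-nm laser-scanning cytometry, 500–530 nm intensity and object ratio to cell channel. Percent activity normalized to 20 uM Triacsin C.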
On the % scale 0 is the no-effect control and ±100 the full control effect; potency means the concentration at half of the fitted maximal effect.

Potency, inconclusive:
Cc1ccc(Cl)c2c(N=Nc3ccccc3)c(O)[nH]c12 0.517 µM [falling, partial curve, poor fit], CCOC(=O)C(NCc1ccc(F)cc1)(NC(=O)c1ccccc1)C(F)(F)F (centres undefined) 20.6 µM [falling, partial curve], CCn1c(COc2ccccc2)nnc1SCC(=O)C(C)(C)C 29.1 µM [falling, partial curve, poor fit], CCN(CC)c1ccc(/C=N/NC(=O)c2c(-c3ccccc3)noc2C)cc1 0.146 µM [activator, full curve], C=CCn1c(SCC(=O)Nc2c(C)cccc2C)nnc1-c1ccncc1 1.46 µM [activator, partial curve], C=CCN(Cc1nc(-c2ccc(OC)cc2)no1)C(=O)c1ccc2c(c1)OCO2 1.03 µM [falling, single point], O=C(CSc1nnc(Nc2ccccc2)s1)NCc1ccco1 6.51 µM [activator, partial curve, poor fit], Cc1ccc(Cl)cc1N(CC(=O)N1CCOCC1)S(C)(=O)=O 20.6 µM [activator, single point], O=C(NC1CCCCC1)N1CCN(c2ccccc2Cl)CC1 29.1 µM [falling, single point], CCC(=O)N(C)CCc1cc2c(c(OC)c1/C=N/NC(=O)c1ccccc1O)OCO2 0.0046 µM [rising, full curve, poor fit], CCN(C(=O)CSc1nnc(-c2ccco2)n1Cc1ccccc1)C1CCS(=O)(=O)C1 (centres undefined) 29.1 µM [falling, single point], COc1ccc(Br)c(C(=O)OCc2cc(=O)oc3cc(C)ccc23)c1 16.4 µM [falling, single point], NC(=O)c1ccc(-n2nnnc2SCC(=O)Nc2ccc(N3CCOCC3)c(Cl)c2)cc1 29.1 µM [falling, single point], Cc1cc(F)ccc1S(=O)(=O)Nc1ccccc1C(=O)N1CCCC1 20.6 µM [activator, partial curve], [O-][n+]1c2ccccc2c2n1CCN=C2c1ccc(Cl)cc1 6.51 µM [activator, single point], COc1ccc(-c2cnnc(N/N=C/c3ccc(O)c(O)c3)n2)cc1 29.1 µM [falling, single point], Cc1ccc(Cc2c(C)nc3nc(SCC(=O)NCc4ccco4)nn3c2C)cc1 29.1 µM [activator, single point], CN(C)C=NC(=O)c1cc(C(=O)c2ccc(Cl)cc2)c[nH]1 32.6 µM [activator, single point], CCc1ccccc1NC(=O)C1CC(c2ccc(F)cc2)=NO1 (centres undefined) 2.59 µM [activator, partial curve], CCOc1ccc(NC(=O)C2CCCN(S(=O)(=O)c3c(C)noc3C)C2)cc1 (centres undefined) 29.1 µM [activator, single point], Cc1cc(C(=O)N/N=C/c2ccc(Br)o2)n[nH]1 6.51 µM [activator, single point], COCCOC(=O)c1c(C)nc(SCC(=O)Nc2ccc(C)cc2)c(C#N)c1-c1ccco1 0.58 µM [rising, partial curve, poor fit], O=C(/C=C/c1cccc(F)c1)NCc1ccc2c(c1)OCO2 0.92 µM [activator, full curve, poor fit], CC(=O)Nc1ccc(S(=O)(=O)NC(C)CCc2ccccc2)cc1 (centres undefined) 23.1 µM [activator, single point]

Potency, active:
CN(C)S(=O)(=O)c1cccc(NC(=O)COC(=O)C2(c3ccccc3F)CCCC2)c1 8.2 µM

Lipid storage change, negative = inhibition, inactive:
COc1ccc(/C=C2/SC(=O)N(CC(O)Cn3c4ccccc4c4ccccc43)C2=O)cc1 (centres undefined) -0.27%

Lipid storage change, negative = inhibition, inconclusive:
O=C(NCC(=O)N1CC(O)CC1C(=O)N1CCCC1C(=O)OCc1ccccc1)OCc1ccccc1 (stereo not drawn) (Cbz-Gly-[Hyp]-Pro-OBn; configuration not given here) -58.1%, Cc1cccc(Oc2ccc(NC(=O)c3ccccc3C(=O)O)cc2)c1 12.4%, O=C(O)CCn1c(CO)nc2ccccc21 5.15%, Cc1cccc(C)c1OCCOCCN1CCN(C)CC1 -28.9%, COC(=O)c1c(C)[nH]c(C(=O)C(C)Sc2nnc(-c3cc(OC)c(OC)c(OC)c3)o2)c1C (centres undefined) 15%, O=C(/C=C/c1cccc([N+](=O)[O-])c1)NCCSCc1ccccc1Cl 35.9%, Cc1ccc([N+](=O)[O-])cc1S(=O)(=O)Nc1ccc(C(=O)NCC2CCCO2)cc1 (centres undefined) -2.32%, Cc1cc(C)c(OCC(=O)NCC2COc3ccccc3O2)c(C)c1 (centres undefined) -74.3%, Cc1cc(=O)nc2c3ccccc3n(CC(=O)NCCCN3CCCCC3C)n12 (centres undefined) 43.7%, CCNC(=O)CSc1nc(-c2ccccc2)cs1 -10.2%, Cn1cc(Cl)c(C(=O)NNC(=S)NC2CCCCC2)n1 15.3%, O=C(CCN1C(=O)/C(=C/c2ccccc2F)SC1=S)NCCCn1ccnc1 -13.3%, COc1ccc(/C=N/N(C)C2=NS(=O)(=O)c3ccccc32)cc1OC 6.87%, O=C(NCc1ccc(Cl)cc1)C(=O)c1c[nH]c2ccccc12 -7.26%, CCOc1ccccc1NC(=O)CN1C(=O)C(C)SC(C)C1=O (centres undefined) 4.49%, O=C(CN(C(=O)Cn1nnc(-c2cccs2)n1)c1ccc2c(c1)OCCO2)NCC1CCCO1 (centres undefined) 21.9%, O=C(Nc1ccccc1)c1cc2ccccc2[nH]1 21.1%, CC1CN(Cc2cc(=O)[nH]c(C(C)C)n2)CC(C)O1 (centres undefined) -6.74%, Cc1ccc(-c2cc(C(F)(F)F)nc(SCC(=O)c3cccc([N+](=O)[O-])c3)n2)cc1 -8.2%, Cc1ccc(C(=O)c2c3ccc([N+](=O)[O-])cc3[n+]([O-])n2CCCN)cc1 -89.3%, O=C1CC(c2ccco2)CC(O)=C1C=Nc1cc(Cl)ccc1O (centres undefined) -1.66%, CN(C(=O)CSc1ncnc2sc3c(c12)CCC3)C1CCS(=O)(=O)C1 (centres undefined) -7.01%, Oc1ccc(N2Cc3ccccc3C2)cc1 7.88%, COc1cc(C)c(CN2CCC(Cc3ccccc3)CC2)cc1C -16.1%, CN1CCN(C(=O)/C=C/c2ccc3c(c2)OCO3)CC1 97.3%, CCN1C(=O)[C@H]2[C@@H](c3ccc(-c4ccc(Cl)c(Cl)c4)cc3)N[C@@](Cc3ccccc3)(C(=O)OC)[C@H]2C1=O 1.53%, Cc1cccc(OCCCC(=O)NCCc2ccccc2)c1 23.2%, O=C(O)C1CCCCC1C(=O)Nc1ccc(F)c(F)c1 (centres undefined) -0.697%, CN1CCN(C(=O)c2cccc(NS(=O)(=O)c3ccc(Br)cc3)c2)CC1 8.15%, Cc1ccnc(NC(=O)c2cccc(S(=O)(=O)N3CCCC3)c2)c1 2.28%, CCCCN(CCCC)Cc1ccc(N)cc1 7.31%, COc1cc(C2/C(=C(\O)c3ccc4c(c3)CC(C)O4)C(=O)C(=O)N2Cc2ccco2)ccc1O (centres undefined) -15.7%, Cc1ccc2cccc(S(=O)(=O)Nc3ccc4c(c3)OCO4)c2n1 21.6%, CCC(=O)N1CCN(c2ccc(NC(=O)c3ccc(N4CCCC4)c([N+](=O)[O-])c3)cc2)CC1 2.53%, COc1cc(C2C(C#N)=C(C)NC3=C2C(=O)CC(C)(C)C3)cc(OC)c1O (centres undefined) 20.3%, Cc1cc(Cl)ccc1OCC(=O)NCCCn1ccnc1 22.7%, COc1cc(C(=O)NCc2ccc3c(c2)OCO3)ccc1OCc1c(C)noc1C -8.38%, O=C(Cc1cccs1)Nc1ccc(F)c(S(=O)(=O)N2CCOCC2)c1 -51.7%, CSc1ncccc1C(=O)N1CCCC(Nc2ccc(C)c(C)c2)C1 (centres undefined) 6.11%, COc1ccccc1CCc1nnc(CCC(=O)NCC2CCCO2)o1 (centres undefined) -10.6%, CCC1C/C(=C\c2cc(OC)c(OC)cc2OC)C(=O)/C(=C/c2cc(OC)c(OC)cc2OC)C1 (centres undefined) -118%, COc1ccc(OC)c(CCNC(=O)C(=O)Nc2ccc3nc4n(c(=O)c3c2)CCCCC4)c1 -24%, CC(=O)NCCC(=O)Nc1ccc(C(N)=O)cc1 -46.7%, COc1ccc(S(N)(=O)=O)cc1C(=O)OCC(=O)NC(C)(C#N)C1CC1 (centres undefined) -15.4%, Cc1ccc2c(c1)c1c(n2CC(O)Cn2nc(C)c(Br)c2C)CCCC1 (centres undefined) 172%, COc1ccc(C(CNC(=O)CCNS(=O)(=O)c2ccc(C)cc2)N2CCOCC2)cc1 (centres undefined) 30.8%, COC(=O)c1c(NC(=O)CCS(=O)(=O)c2ccccc2)sc2c1CCN(C)C2 22.7%

outcome, inactive:
Cc1ccc(NC(=O)CCNS(=O)(=O)c2ccc3[nH]c(=O)oc3c2)c(Cl)c1 inactive [at 46.1 µM]

— PubChem BioAssay AID2685 (National Center for Advancing Translational Sciences (NCATS), 2010)
